In patent US20100093747A1, “METHOD OF INDUCING NEGATIVE CHEMOTAXIS” (priority 2008, published 2010):
Some entries share one result that the patent states for a list of compounds. At least one structure is not confirmed: it was looked up by name or label, or the drawing left a doubt.

These compounds were tested on human neutrophils (assay: Chemorepulsion (negative chemotaxis) of neutrophils in Neuroprobe ChemoTx plates, migrated cells quantified with Cell Titer Glo). Conditions: neutrophils, 0.1, 1, 10 and 100 uM, screened once in CR mode, 1 hour.
Type: cell-based
Protocol: Prior to beginning the assay, the following were prepared: • a. 0.5% Fetal Calf Serum (FCS) in Iscove's Modified Dulbecco's Medium (IMDM) (Assay Medium) (Both from ATCC). • b. Migratory cells at a concentration of 2×10^7 cells/ml in Assay Medium. • c. Four serial (10-fold) dilutions of the ligand of interest in Assay Medium. All stocks were diluted initially 1:100 into Assay Medium and subsequently made into 10 fold dilutions (100 uM, 10 uM, 1 uM, 0.1 uM). […] The same dilutions were followed. • 2. […] The plates were removed from packaging, leaving the membrane behind. • 4. 31 μl of the following solutions were pipetted into each well: • a. For media controls and for chemorepulsion samples, Assay Medium was used. • b. For chemoattraction samples, appropriate dilution of ligand was used. • 5. A sterile needle was used to pop any and all small bubbles present in each well. • 6. The membrane was carefully placed onto the plate, starting at one side and then slowly lowering the other edge onto the plate. • 7. 29 μl of the following were pipetted onto the top of each circle: • a. For media controls and chemoattraction samples, use Assay Medium. • b. For chemorepulsion samples, use the appropriate dilution of ligand. • 8. 2 μl of cells (40,000 cells) were added to each bubble of liquid from step 7. • 9. A needle was used to pop all air bubbles. • 10. The plate was covered with the supplied lid and incubated for the desired time at 37° C. in 5% CO2. Unless otherwise indicated, the incubation time was 1 hour for neutrophils and 3 hours for T cells. For monocytes and B cells, the incubation time was 2 hours. • 11. After the desired assay time, the liquid was removed from the top of the plate using a Kimwipe. At this point, the plate was stored (with the membrane in place) for up to 2 hours at 4° C. • 12. The membrane was carefully removed from the top of the plate and discard. The plate was examined under a microscope to look for ligand crystallization, contamination and overall migration. • 13. White read plates were preloaded with 25 ul PBS. • 14. Using a multichannel pipettor, 5 ul of Cell Titer Glo (Promega # G7572) was added to each well. • 15. Using a multichannel pipettor set at 30 ul, lysed cell solution was transferred to white read plates pre-loaded with PBS. • 16. The plate was read using the BioTek Synergy4 plate reader in order to quantify the number of migrated cells.
Compounds from the chemical analog library were screened once in CR mode as described.

SMILES | chemorepulsion relative to media (omeprazole derivative library)
COc1ccc2[nH]c(SCC(=O)c3cc(C(C)(C)C)c(O)c(C(C)(C)C)c3)nc2c1 [Compound 20] | at least 3 fold
COc1ccc(C(=O)CSc2nc3cc(OC)ccc3[nH]2)cc1 [Compound 21] | at least 3 fold
COc1ccc2[nH]c(SCc3ccc(Cl)c(Cl)c3)nc2c1 [Compound 22] | at least 3 fold
COc1ccc2[nH]c(SCC(=O)c3ccc4c(c3)OCO4)nc2c1 [Compound 23] | at least 3 fold
COc1ccc2[nH]c(SCCN3CCOCC3)nc2c1 [Compound 27] | less than 3 fold
COc1ccc2[nH]c(Sc3c(-c4ccccc4)c4cc(Cl)ccc4[nH]c3=O)nc2c1 [Compound 54] | at least 3 fold
COc1ccc2[nH]c(Sc3c([N+](=O)[O-])nc(C)n3Cc3ccccc3)nc2c1 [Compound 72] | less than 3 fold
COc1ccc2[nH]c(Sc3ccc(C(F)(F)F)cc3[N+](=O)[O-])nc2c1 [Compound 88] | at least 3 fold
COc1ccc2[nH]c(Sc3c(-c4ccccc4)c4ccc(Cl)cc4[nH]c3=O)nc2c1 [Compound 99] | at least 3 fold
COc1ccc2[nH]c(Sc3cc(NCCO)c([N+](=O)[O-])c4nonc34)nc2c1 [Compound 126] | less than 3 fold
COc1ccc2[nH]c(Sc3cc(NCCCO)c([N+](=O)[O-])c4nonc34)nc2c1 [Compound 127] | less than 3 fold
CSc1nc2cc(Cl)c(Oc3ccc4ccccc4c3Br)cc2[nH]1 [Compound 136] | at least 3 fold
CSc1nc2cc(Cl)c(Oc3ccc(Br)c4ccccc34)cc2[nH]1 [Compound 147] | less than 3 fold
